Measured values as given in the supplement of paper PMC10338343.
± gives the standard deviation. This is a selection; strong and weak results do not stand in their true shares. The uncertainty is large for many entries.

These sequences were tested on MILI (PIWIL2) piRISC loaded with Kctd7 piRNA (26 nt) (assay: pre-steady-state target cleavage rate (min^-1); MIWI and MILI are mouse PIWI proteins and EfPiwi is from a freshwater sponge; tags in brackets are library labels; higher = faster piRNA-guided slicing of the target). Settings: guide: Kctd7 piRNA 5'p-UGUUAAUCUCUCAGAGAAGGUGACAG; auxiliary factor: 500 nM mouse GTSF1.
Protocol: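 Cleave-'n-Seq: a library of target RNAs (target site embedded in constant flanks, ACAGCATTCCGCGTTAGTGATATCCG... 5' flank; DNA-blocked outside the site) at 0.1 nM was incubated with 1 nM active mouse MILI or MIWI piRISC (synthetic 5'-monophosphorylated piRNA guide) with or without 500 nM mouse GTSF1 at 33 °C for 1 min to 16 h. Uncleaved targets were sequenced and normalised to non-target controls, and the pooled three trials were fitted to a burst-and-steady-state model to give the pre-steady-state cleavage rate (min^-1; k3 is constrained to at most 1e-4). Sequence is the target site only; target names encode pairing extent (gX:gY) and contiguous / 1-mismatch / 2-mismatch / bulge geometry. Fits with R² ≤ 0 are excluded.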

Sequence	pre-steady-state target cleavage rate
UAGUCUGUCAGGUUCUCUGAGAGAUAUUGA	0.00052 ± 0.0079
UAGUGAGUCACCUUGACUGAGAGAUAUUGA	0.000362 ± 0.026
UAGUGACACACCUUCUCUCUCAGAUUUUGA	0.000547 ± 0.027
UAGUGACAGUGGAUCUCUGAGACAUUUACA	0.000175 ± 0.029
UAGUGACAGUCCUUCUGUGAGAGAUUAAGA	0.00161 ± 0.0047
UAGUGACAGUGGAAGUCUGAGAGUAUUAACA	0.000487 ± 0.0044
UAGUGACAGUCCUUCUCUCUCAGAUUAACA	0.00183 ± 0.0045
UAGUGACAGUGGAAGUCUGAGAUAUUAACA	0.000759 ± 0.0069
UAGUGACAGUGGUGCUCUGAGAGAUUAACA	0.00261 ± 0.004
UAGUGACACACCUUGUCUGAGUGAUUAACA	0.00304 ± 0.0049
UAGUCUGUCACCUUCUCUGACUCAUUAAGA	0.000604 ± 0.0055
UAGUCUCUCACCUUCUGUGAGAGAUUAACA	0.00147 ± 0.0094
UAGUGACUCUGGUUCUCUGAGAGAUUAUGA	0.000265 ± 0.035
UAGUGACAGACCUUCUCUAGAGAUUAACA	0.00349 ± 0.0055
UAGUGACAGUGCUUCUCUGAGUAGAUUAACA	0.00136 ± 0.0097
UAGUGACUCACCUUGAGUGAGAGAUUAUGA	0.000422 ± 0.026
UAGUGACAGACCUUCUCUGAGACUUUUUGA	0.000114 ± 0.086
UAGUGACAGUCCUUCUCUGAGAGAUUACCA	0.00831 ± 0.0032
UAGUGACAGUGGAUCUCUCUCAGAUUAACA	0.000305 ± 0.021
UAGUGACAGUGGAACUCUGAAGAGAUUAACA	0.000112 ± 0.071
UAGUGACUCACGUUCUCUGAGAGAUUUUGA	0.000706 ± 0.011
UAGUGACAGUGGAAGAGAGAGCAGAUUAACA	0.00017 ± 0.034
UAGUGACAGUGGAAGACUGAGACUAUAACA	0.000249 ± 0.03
UAGUGACAGUGGAAGACUGACAGAUUUACA	< 0.0001

As a short view, part of the list above.
Sequence	pre-steady-state target cleavage rate
UAGUGACAGUGGAACUCUGAAGAGAUUAACA	0.000112 ± 0.071
UAGUGACUCACGUUCUCUGAGAGAUUUUGA	0.000706 ± 0.011
UAGUGACAGUGGAAGAGAGAGCAGAUUAACA	0.00017 ± 0.034

Next part

Sequence	pre-steady-state target cleavage rate
UAGUGUGUCACCUUCUCCGAGAGAUUAACA	0.373 ± 0.1
UAGUGACAGUGGAUCUCUGACAGAUUAUCA	0.000205 ± 0.037
UAGUGACAGUCCUUCUCUGUAGAGAUUAACA	0.000422 ± 0.0086
UAGUGACUCACCUUGACUGAGAGAUAUUGA	0.00056 ± 0.018
UAGUGACACACCUUCUCUGAGACAUUAUGA	0.00103 ± 0.0072
UAGUGACAGACCUUCUCUGAAGAGAUUAACA	0.000497 ± 0.013
UAGUGACAGUGCUUCUCUGACUCAUUAACA	0.000669 ± 0.0088
UAGUGACAGUGCUUCUGUGACAGAUUAACA	0.00166 ± 0.0062
UAGUGACUCACCUUCUCUGCAGAGAUUAACA	0.000779 ± 0.01
UAGUGAGUCACCUUGAGUGAGAGAUUAAGA	0.00345 ± 0.005
UAGUGACAGUGGAAGUCUGAGUGAUAAACA	0.000198 ± 0.021
UAGUGACAGUGGUUCUCUGAGACGAUUAACA	0.000145 ± 0.019
UAGUGACUCACCUUCUGAGAGAGAUAUUGA	0.000874 ± 0.0092
UAGUGACAGAGCUUCUCUGAGAGAAUAACA	0.00329 ± 0.0036
UAGUGACAGUGGUUCACUGUGAGAUUAACA	0.000884 ± 0.01
UAGUGACAGUGGAAGAGACUCACAUUAACA	0.000163 ± 0.02
UAGUGACAGUGGAAGAGUGACUCAUUAACA	0.000512 ± 0.014
UAGUGAGUCACCUUCUCGAGAGAUUAACA	0.0598 ± 0.015
UAGUGACAGUGGUUCUGUGAGAGUUUAACA	0.000458 ± 0.013
UAGUGAGUGACCUUCUCUGAGAGAUAAACA	0.0814 ± 0.021
UAGUGACAGUGCUUCUCUGACACAUUAACA	0.00031 ± 0.017
UAGUGAGUCACCUUCUCUGAGAGUUUAACA	0.277 ± 0.061
UAGUGACAGUCCUUCUCUGCAGAGAUUAACA	0.000122 ± 0.016
UAGUCUGUCAGGUUCUCUGAGAGAUUAUGA	0.00124 ± 0.0059

Sequence	pre-steady-state target cleavage rate
UAGUGACAGUGGUUCUCGGAGAGAUUAACA	0.000174 ± 0.017
UAGUGACAGACCUUCUCUGACUCAUUAACA	0.00137 ± 0.0092
UAGUCUGUCACCUUGUCUGAGAGAUUAACA	0.133 ± 0.016
UAGUGACAGUGGAUCUCUGAGAGAUUAACU [g2:g17:cont:t1U]	0.00183 ± 0.0049
UAGUGACAGUGGAAGAGAGAGAGGAUUAACA	0.000225 ± 0.025
UAGUGACAGUGGUUGUCUGAGUGAUUAACA	0.00115 ± 0.0059
UAGUGACAGUGGAAGAGUGAGCAGAUUAACA	0.000247 ± 0.025
UAGUGACAGUGGUUGUCUGAGAGAUUAUCA	0.002 ± 0.0043
UAGUGACAGUCCUUGUCUGAGAGAUUAAGA	0.00045 ± 0.019
UAGUGACAGUCCUUCUCUGAGAGAAAUAGA	0.000114 ± 0.016
UAGUGACAGUGGUUCUCUGAGAGAUUAUACA	0.000725 ± 0.0088
UAGUCUGUCACCUUCUCUGACUCAUUAUGA	0.00123 ± 0.0045
UAGUGACAGUGGUUCUGUGACAGAUUAACA	0.000293 ± 0.022
UAGUGACAGUGGUUCUCAGAGAGUUUAACA	0.000551 ± 0.013
UAGUGACAGUGGAAGUCUGAGAGAUUGACA	0.000749 ± 0.0061
UAGUGAGUCACCUUCUCUGAGAGAUUACACA	0.187 ± 0.038
UAGUGAGUCACCUUCUCUGAGAAAUUAACA	0.132 ± 0.027
UAGUGACAGUGGAACUCUGAGAGAUUGACA	0.000432 ± 0.025
UAGUGACACACCUUCUCUGACUGAUUAACA	0.00109 ± 0.0072
UAGUGACAGUGGAAGUCUGAGAGAUUAUCA	0.000115 ± 0.019
UAGUGACAGUCCUUCUCGAGAGAUUAACA	0.00334 ± 0.0046
UAGUGACAGUGGUUCUCUGUCUCUAAUUGA [g12:g18:cont:t1A]	0.000133 ± 0.027
UAGUGACAGUGGAAGAGUGAGAGAUUUUCA	0.000234 ± 0.035
